No constants are given. Whether binding was seen depends on the method and setting. Binding seen in cells or lysates may run through a third protein. Some results given as binding are weak or reduced against the parent protein; the word gives no strength.
Columns and labels:
[1] = molecular target: myc-tagged DPYSL3 (dihydropyrimidinase-like 3) (human) (UniProt Q14195); assay: co-IP; lysate of PANC-1 cells stably expressing DPYSL3-myc (or myc vector) in NP-40 lysis buffer (20 mM Tris-HCl pH 8.0, 100 mM NaCl, 0.5% NP-40, 5 mM EDTA); agarose-conjugated anti-c-myc antibody overnight at 4°C; western blot
[2] = molecular target: Ezrin (EZR) (human (endogenous in CFPAC-1 and PANC-1)) (UniProt P15311); assay: co-IP; lysate of PANC-1 cells stably expressing DPYSL3-myc or myc vector in NP-40 lysis buffer; anti-Ezrin antibody overnight at 4°C, protein G-sepharose; western blot

Sequences of proteins named here, by UniProt entry; tags and fusion partners are left off. A change or cut given only in a name is not applied to a line headed by its entry. A line that says so, or that is headed by a name, gives the form on record, which may keep a tag or linker.
myc-tagged DPYSL3 (dihydropyrimidinase-like 3) (Q14195, form named): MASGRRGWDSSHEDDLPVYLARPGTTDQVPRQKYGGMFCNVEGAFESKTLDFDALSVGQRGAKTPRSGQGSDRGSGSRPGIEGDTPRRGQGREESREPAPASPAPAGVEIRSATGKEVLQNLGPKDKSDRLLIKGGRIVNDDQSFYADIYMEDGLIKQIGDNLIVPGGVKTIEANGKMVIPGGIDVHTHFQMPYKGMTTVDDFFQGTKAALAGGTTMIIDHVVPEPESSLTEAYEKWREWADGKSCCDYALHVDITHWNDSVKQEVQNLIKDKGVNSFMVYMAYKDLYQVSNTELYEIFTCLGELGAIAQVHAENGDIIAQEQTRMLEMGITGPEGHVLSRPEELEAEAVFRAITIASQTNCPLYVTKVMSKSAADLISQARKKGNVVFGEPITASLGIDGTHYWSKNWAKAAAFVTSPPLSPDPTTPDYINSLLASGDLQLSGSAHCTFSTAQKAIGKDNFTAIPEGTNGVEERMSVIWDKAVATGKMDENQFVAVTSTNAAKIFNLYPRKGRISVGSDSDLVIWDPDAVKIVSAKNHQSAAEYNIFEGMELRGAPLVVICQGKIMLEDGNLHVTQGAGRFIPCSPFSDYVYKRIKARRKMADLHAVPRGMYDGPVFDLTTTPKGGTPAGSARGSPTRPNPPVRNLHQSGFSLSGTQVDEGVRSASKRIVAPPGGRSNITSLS
UniProt P15311: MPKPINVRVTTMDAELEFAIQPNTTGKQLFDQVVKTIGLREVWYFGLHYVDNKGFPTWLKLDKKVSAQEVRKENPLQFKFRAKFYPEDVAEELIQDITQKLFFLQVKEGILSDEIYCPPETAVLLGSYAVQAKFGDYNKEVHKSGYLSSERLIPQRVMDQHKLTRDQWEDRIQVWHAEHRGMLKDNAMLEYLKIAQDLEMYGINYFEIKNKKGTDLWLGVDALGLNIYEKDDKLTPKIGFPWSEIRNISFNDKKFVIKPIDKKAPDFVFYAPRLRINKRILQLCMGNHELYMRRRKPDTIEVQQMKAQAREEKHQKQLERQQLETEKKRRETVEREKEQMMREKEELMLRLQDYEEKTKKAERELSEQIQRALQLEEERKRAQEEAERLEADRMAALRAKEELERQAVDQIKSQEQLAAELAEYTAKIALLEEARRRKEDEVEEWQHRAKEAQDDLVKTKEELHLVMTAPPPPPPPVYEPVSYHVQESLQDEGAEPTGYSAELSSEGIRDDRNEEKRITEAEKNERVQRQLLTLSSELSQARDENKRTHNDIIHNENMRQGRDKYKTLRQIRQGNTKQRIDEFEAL
UniProt Q9Y490: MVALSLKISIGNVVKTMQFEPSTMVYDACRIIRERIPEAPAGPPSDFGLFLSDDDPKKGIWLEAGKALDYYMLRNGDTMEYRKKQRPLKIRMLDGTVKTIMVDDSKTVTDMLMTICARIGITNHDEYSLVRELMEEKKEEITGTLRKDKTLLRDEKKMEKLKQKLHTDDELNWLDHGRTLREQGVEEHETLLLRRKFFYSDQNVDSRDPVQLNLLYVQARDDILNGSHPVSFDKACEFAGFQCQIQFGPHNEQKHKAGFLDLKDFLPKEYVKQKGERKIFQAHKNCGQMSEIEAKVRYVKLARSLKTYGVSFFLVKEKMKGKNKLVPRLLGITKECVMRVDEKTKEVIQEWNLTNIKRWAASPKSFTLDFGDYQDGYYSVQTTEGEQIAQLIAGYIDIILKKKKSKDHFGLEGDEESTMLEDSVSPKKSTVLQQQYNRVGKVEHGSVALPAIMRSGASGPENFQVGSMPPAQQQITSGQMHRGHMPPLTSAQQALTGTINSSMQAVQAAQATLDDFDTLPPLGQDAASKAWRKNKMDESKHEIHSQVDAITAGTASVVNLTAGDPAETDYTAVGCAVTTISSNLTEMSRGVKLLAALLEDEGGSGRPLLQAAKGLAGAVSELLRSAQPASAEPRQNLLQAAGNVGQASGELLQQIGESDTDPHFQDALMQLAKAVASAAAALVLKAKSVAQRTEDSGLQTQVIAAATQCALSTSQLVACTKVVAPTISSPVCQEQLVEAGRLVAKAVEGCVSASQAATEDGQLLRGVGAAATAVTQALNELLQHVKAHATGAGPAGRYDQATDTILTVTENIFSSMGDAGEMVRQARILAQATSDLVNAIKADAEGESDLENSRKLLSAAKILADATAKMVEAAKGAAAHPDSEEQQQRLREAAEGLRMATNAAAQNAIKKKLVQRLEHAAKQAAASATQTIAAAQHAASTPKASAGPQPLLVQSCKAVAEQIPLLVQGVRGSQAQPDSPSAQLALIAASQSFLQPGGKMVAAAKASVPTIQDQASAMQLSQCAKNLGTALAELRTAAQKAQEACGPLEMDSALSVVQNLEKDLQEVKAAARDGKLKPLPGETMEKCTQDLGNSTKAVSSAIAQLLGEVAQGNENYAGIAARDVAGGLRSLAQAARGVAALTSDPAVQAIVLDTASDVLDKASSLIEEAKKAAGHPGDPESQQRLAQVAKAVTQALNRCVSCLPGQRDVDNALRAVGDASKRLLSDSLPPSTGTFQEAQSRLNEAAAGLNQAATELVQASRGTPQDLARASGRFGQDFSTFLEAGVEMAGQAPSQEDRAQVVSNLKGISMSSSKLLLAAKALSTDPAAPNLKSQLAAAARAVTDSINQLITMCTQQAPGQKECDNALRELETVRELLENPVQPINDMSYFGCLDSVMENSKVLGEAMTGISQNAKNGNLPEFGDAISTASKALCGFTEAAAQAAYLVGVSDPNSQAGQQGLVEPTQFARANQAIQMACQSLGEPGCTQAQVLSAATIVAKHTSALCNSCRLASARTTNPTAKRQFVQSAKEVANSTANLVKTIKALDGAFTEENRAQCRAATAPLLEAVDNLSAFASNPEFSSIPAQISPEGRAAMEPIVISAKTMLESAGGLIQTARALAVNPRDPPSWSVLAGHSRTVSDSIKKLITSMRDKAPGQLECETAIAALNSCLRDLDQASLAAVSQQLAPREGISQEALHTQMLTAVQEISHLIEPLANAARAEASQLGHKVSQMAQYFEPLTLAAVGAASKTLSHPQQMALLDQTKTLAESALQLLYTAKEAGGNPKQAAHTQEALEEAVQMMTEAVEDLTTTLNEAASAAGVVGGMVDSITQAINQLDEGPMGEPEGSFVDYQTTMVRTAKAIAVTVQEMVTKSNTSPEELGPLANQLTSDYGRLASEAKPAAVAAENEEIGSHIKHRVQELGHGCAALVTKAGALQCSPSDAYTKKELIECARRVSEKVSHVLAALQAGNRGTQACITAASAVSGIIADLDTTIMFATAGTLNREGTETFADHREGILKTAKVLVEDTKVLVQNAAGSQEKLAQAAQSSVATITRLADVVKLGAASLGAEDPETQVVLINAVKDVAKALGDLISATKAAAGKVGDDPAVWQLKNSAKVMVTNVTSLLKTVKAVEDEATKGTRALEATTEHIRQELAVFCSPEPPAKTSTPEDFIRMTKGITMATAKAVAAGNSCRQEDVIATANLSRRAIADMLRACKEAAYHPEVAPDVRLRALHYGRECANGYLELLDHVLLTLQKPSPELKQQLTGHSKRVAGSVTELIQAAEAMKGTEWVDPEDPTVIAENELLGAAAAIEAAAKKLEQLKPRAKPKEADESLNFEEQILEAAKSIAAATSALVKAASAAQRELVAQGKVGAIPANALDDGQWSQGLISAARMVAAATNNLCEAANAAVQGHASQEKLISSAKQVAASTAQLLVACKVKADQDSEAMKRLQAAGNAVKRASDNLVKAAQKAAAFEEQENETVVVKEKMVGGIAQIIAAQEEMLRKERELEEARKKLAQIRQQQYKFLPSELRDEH
UniProt Q05397: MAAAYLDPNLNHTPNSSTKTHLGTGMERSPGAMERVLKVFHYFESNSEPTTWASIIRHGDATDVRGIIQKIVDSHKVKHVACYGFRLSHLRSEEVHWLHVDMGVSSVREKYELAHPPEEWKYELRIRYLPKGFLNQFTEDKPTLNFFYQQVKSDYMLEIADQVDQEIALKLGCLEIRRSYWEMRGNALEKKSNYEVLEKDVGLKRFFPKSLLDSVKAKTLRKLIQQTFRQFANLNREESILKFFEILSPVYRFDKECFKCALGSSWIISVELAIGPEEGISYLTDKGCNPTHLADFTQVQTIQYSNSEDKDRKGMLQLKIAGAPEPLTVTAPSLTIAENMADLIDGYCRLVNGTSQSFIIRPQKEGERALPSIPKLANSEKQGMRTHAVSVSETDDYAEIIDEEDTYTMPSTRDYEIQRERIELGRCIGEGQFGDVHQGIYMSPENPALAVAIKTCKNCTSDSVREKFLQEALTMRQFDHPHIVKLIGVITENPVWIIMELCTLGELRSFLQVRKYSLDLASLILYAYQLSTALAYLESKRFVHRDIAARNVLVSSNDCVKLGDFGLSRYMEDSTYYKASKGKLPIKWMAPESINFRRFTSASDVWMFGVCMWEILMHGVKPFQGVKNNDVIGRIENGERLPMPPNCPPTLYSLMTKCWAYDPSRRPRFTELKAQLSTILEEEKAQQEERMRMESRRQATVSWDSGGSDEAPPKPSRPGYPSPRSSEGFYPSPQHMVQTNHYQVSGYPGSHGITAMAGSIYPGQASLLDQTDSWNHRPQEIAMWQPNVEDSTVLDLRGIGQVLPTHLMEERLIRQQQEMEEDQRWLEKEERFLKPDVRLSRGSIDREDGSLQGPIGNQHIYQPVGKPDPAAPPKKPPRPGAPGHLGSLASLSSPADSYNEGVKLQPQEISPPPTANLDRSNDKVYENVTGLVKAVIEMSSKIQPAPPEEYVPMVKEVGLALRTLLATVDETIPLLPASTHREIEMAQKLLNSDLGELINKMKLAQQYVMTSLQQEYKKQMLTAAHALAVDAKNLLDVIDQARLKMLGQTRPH

binding [1] | binding [2] | Substance
binds | – | Ezrin (EZR) (from UniProt P15311 1-586)
binds | binds | Talin1 (TLN1) (from UniProt Q9Y490 1-2541)
binds | binds | focal adhesion kinase (FAK) (from UniProt Q05397 1-1052)

From PMC3855176
